Experimental data from PubChem BioAssay AID2685 (National Center for Advancing Translational Sciences (NCATS), 2010).
This is one part of the list. Shown are side measurements of this screen, not its main read-out; they come without a call. Compounds called inactive in the main read-out are mostly missing here. The note in brackets gives the kind of curve behind each potency; many fits are weak.

Experiment: qHTS Assay for Lipid Storage Modulators in Drosophila S3 Cells;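 for cell number change: cells counted by Cell Tracker Red CMTPX staining in the red channel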
Conditions: BODIPY lipid droplet fluorescence, 18-24 h; for cell number change: measured here: cell count max response, cells fed with added oleic acid
Summary of the method: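 Laser-scanning cytometry quantifies lipid droplet accumulation (500–530 nm total intensity; droplet/cell object ratio) in oleic acid-fed (400 uM added) Drosophila S3 cells treated with a concentration series. 20 uM Triacsin C defined 100% inhibition.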

[1] = measured here: lipid fluorescence (Fed channel) AC50, cells fed with added oleic acid
[2] = measured here: cell number channel AC50, cells fed with added oleic acid

Row | Structure (SMILES) | cell number change [%] | AC50 [1] | AC50 [2]
1 | CC(C)CN(C(=O)COC(=O)CSc1ccc(Br)cc1)C1CCS(=O)(=O)C1 (stereo not given) | -13.5 |  | 
2 | O=C1CC(c2cc3c(cc2Br)OCO3)C2=C(CCCC2=O)N1 (stereo not given) |  | 0.0326 µM [rising, full curve, poor fit] | 
3 | Cc1nc(N2CCCCC2)sc1C=O | -37.2 |  | 29.1 µM [falling, single point]
4 | COc1cc(/C=C/C2=CC(C)(C)NC(=S)N2)cc(OC)c1OC | -5.41 |  | 
5 | CCCNC(=O)c1onc(CS(=O)(=O)c2cccc(OC)c2)c1C(=O)NCCC | -25.9 | 0.116 µM [falling, full curve, poor fit] | 
6 | CCn1c(Cc2ccccc2)nnc1SCC(=O)NC(C)(C)C | 6.74 | 3.26 µM [rising, partial curve] | 0.13 µM [rising, full curve, poor fit]
7 | COc1ccccc1N1CCN(C(=O)c2ccc(C(C)(C)C)cc2)CC1 | -12.7 |  | 
8 | CCN(CC)c1nc(C(N)=O)cc(-c2ccccc2)n1 | -54.5 |  | 
9 | O=C(CN1C(=O)COc2ccc(S(=O)(=O)N3CCCC3)cc21)Nc1cccc(F)c1 |  | 6.51 µM [rising, partial curve] | 
10 | Nc1nc(SCC(=O)OCc2ccccc2)[nH]c(=O)c1NC(=O)c1ccco1 | -104 | 18.4 µM [falling, partial curve] | 25.9 µM [falling, partial curve, poor fit]
11 | Clc1ccc(CN2CCCCCCC2)cc1Cl | -59.4 | 18.4 µM [falling, single point] | 13 µM [falling, partial curve, poor fit]
12 | Cc1ccc(C(=O)N2CCCCCC2)cc1S(=O)(=O)N1CCOCC1 | 1.98 | 29.1 µM [rising, single point] | 0.146 µM [rising, full curve, poor fit]
13 | CC(NC(=O)c1ccc(F)cc1)c1ccc2c(c1)CCCC2 (stereo not given) | 113 |  | 18.4 µM [rising, single point]
14 | C[C@@]12CCC=C[C@H]1[C@H](c1ccc(C(F)(F)F)cc1)N(Cc1ccccc1)C2=O | -45.1 | 29.1 µM [falling, single point] | 29.1 µM [falling, single point]
15 | Cc1cccc(C(=O)NC(=S)N2CCc3ccccc3C2)c1 | 14 |  | 0.461 µM [falling, single point]
16 | Cc1cc(C)c2oc(C(=O)Nc3ccc(S(=O)(=O)N4CCC(C)CC4)cc3)cc(=O)c2c1 | 24.7 | 29.1 µM [rising, single point] | 
17 | CCOC(CCn1c(SCC(=O)Nc2cc(C)on2)nc2ccccc2c1=O)OCC |  | 3.66 µM [rising, single point] | 
18 | Cc1ccccc1Nc1nc(N)nc(CSc2ccccc2)n1 | -33.3 | 18.4 µM [rising, partial curve] | 32.6 µM [falling, single point]
19 | Cn1ccc(C(=O)Oc2ccc(C(=O)Nc3ccc(F)cc3F)cc2)n1 | 21.4 |  | 
20 | CCn1cc2nc(SCC(=O)Nc3ccc(F)cc3F)n(Cc3ccccc3)c(=O)c2n1 | -18.8 | 0.58 µM [rising, single point] | 

Look-ups from the list.
For cell number change [%], Cc1cccc(C(=O)NC(=S)N2CCc3ccccc3C2)c1 shows 14
For AC50 [1], O=C(CN1C(=O)COc2ccc(S(=O)(=O)N3CCCC3)cc21)Nc1cccc(F)c1 shows 6.51 µM [rising, partial curve]
For AC50 [2], Cc1ccccc1Nc1nc(N)nc(CSc2ccccc2)n1 shows 32.6 µM [falling, single point]

Continuation:

Row | Structure (SMILES) | cell number change [%] | AC50 [1] | AC50 [2]
21 | CCOc1ncccc1C(=O)Nc1ccccc1C(=O)NCc1ccc2c(c1)OCO2 | -34.3 |  | 3.26 µM [falling, partial curve]
22 | COc1ccc(NC(=O)Cn2cccc2)cc1Cl | -41.7 |  | 
23 | CCOC(=O)c1cccc(C2=CC(=O)CC(C)(C)C2)c1 | -9.7 |  | 
24 | CCn1c(=O)cc(SCC(=O)NCCC2=CCCCC2)c2ccccc21 | 2.98 | 4.11 µM [rising, full curve, poor fit] | 
25 | CCCOc1ccc(N/C=C/C(=O)c2cc(OC)c(OC)c(OC)c2)cc1 | 4.01 | 2.31 µM [rising, partial curve] | 4.11 µM [rising, single point]
26 | Cc1sc2ncnc(N3CCN(Cc4ccccc4)CC3)c2c1-c1ccccc1 | -0.855 |  | 
27 | CC(=O)c1sc(NC(=O)c2c(F)cccc2F)nc1C | 40.8 | 20.6 µM [rising, single point] | 14.6 µM [rising, single point]
28 | Cc1ccc(-c2csc(N/N=C/c3ccco3)n2)c(C)c1 | -8.59 | 1.16 µM [falling, single point] | 0.731 µM [falling, single point]
29 | Cc1ccc2nc(N3CCN(C(=O)c4ccco4)CC3)sc2c1 | -2.02 |  | 
30 | CCN(Cc1ccccc1)S(=O)(=O)c1csc(C(N)=O)c1 | 8.94 |  | 
31 | O=C(C1=C(O)C(=O)N(CC2CCCO2)C1c1cccnc1)c1ccco1 (stereo not given) | -2.78 |  | 0.13 µM [falling, full curve, poor fit]
32 | CCc1ccc(C2=NNC(=Nc3cccc(S(=O)(=O)N(C)C)c3)SC2)cc1 | 34.2 | 8.2 µM [rising, partial curve] | 4.11 µM [rising, partial curve, poor fit]
33 | Cc1cccc(N=CC=C2OC(C)(C)C(C)(C)O2)c1 | -2.1 | 32.6 µM [rising, single point] | 
34 | O=C(O)c1ccc([N+](=O)[O-])c(CS(=O)(=O)c2ccc(Cl)cc2)c1 | 7.56 | 0.146 µM [falling, full curve, poor fit] | 
35 | Cc1sc(NC(=O)c2ccccc2F)c(CN2CCCCC2C)c1C (stereo not given) | -3.54 |  | 
36 | Cn1cccc1Cc1nnc(SCC(=O)N2CCN(c3ccccc3)CC2)n1-c1ccc(F)cc1 | -28.3 | 29.1 µM [falling, single point] | 
37 | CC1Sc2ccc(S(=O)(=O)CCC(=O)N3CCCC3)cc2NC1=O (stereo not given) | 11.3 | 3.66 µM [rising, full curve] | 
38 | Nc1nc2ccc(N3CCOCC3)cc2s1 | 17.8 |  | 
39 | CSc1nc2ccc3nc(NC(=O)c4cccs4)sc3c2s1 | 169 |  | 
40 | Cc1ccc(C)c(S(=O)(=O)N2CCN(CC(=O)N3CCc4ccccc4C3)CC2)c1 | 46.6 | 13 µM [rising, partial curve] | 0.411 µM [rising, full curve]
